Test results from patent US20080089859A1, “ADMINISTRATION OF SLEEP RESTORATIVE AGENTS” (priority 2001, published 2008).
The amount applied is not stated for every result.

System: patients having rheumatoid arthritis
Assay: Heart variability data of rheumatoid arthritis patients treated with soluble TNFα receptor
Type: in vivo, human

Etanercept
TENSION (tension index), Mean (treatment Success group, N 20): 202.60 | TPOWER (total power), Mean (treatment Success group, N 20): 631.90 | VAGUS (vagus tone), Mean (treatment Success group, N 20): .1765 | TENSION (tension index), Mean (treatment failure group, N 21): 598.05 | TPOWER (total power), Mean (treatment failure group, N 21): 258.71 | VAGUS (vagus tone), Mean (treatment failure group, N 21): .1005
